Laboratory results reported in PubChem BioAssay AID504467 (National Center for Advancing Translational Sciences (NCATS), 2011).
About 7,700 (2.3%) of roughly 330,000 compounds were called active. The shares of active, inactive and inconclusive entries below differ from those in the screen. Calls follow the shape of the dose curve; as a rule, active = well fitted inhibition curve with a large enough effect; inconclusive = small, poorly fitted or top-dose-only effect, or effect the other way; inactive = flat fitted curve, though single readings scatter. Potencies beside an inconclusive call are fits to weak or partial responses and may not hold up.

Assay: qHTS screen for small molecules that inhibit ELG1-dependent DNA repair in human embryonic kidney (HEK293T) cells expressing luciferase-tagged ELG1; also: nearly all actives have a fitted effect of over 55% in size
Details: HEK293T ELG1-luciferase reporter, luminescence, 16 h, DNA damage induced by 5-fluorouridine; activity change, negative = inhibition: at 46.1 µM (top of the series)
Method in brief: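 HEK293T cells expressing luciferase-tagged ELG1 (2,000/well) received 5-Fluorouridine plus compound or DMSO for 16 hr at 37 °C. Luciferase was read by ONE-Glo luminescence after 30 min at room temperature.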
% is scaled to controls: 0 for no effect and ±100 for the full control effect; potency is read from the fitted curve at half-maximal effect.

SMILES	Potency	activity change, negative = inhibition
CC(C)CSC1=NSC2=NC(=O)/C(=C\c3cccs3)C(=N)N12	inconclusive: 20.6 µM [activator, partial curve]	–
CCOC(=O)c1c(C)[nH]c(C(=O)C(C)OC(=O)c2ccc(NC(=O)CC#N)cc2)c1C (centres undefined)	inconclusive: 29.1 µM [inhibitor, single point]	–
Cc1ccc(NC(=O)COC(=O)c2nn(C)cc2Cl)cc1	–	inactive: 1.8%
O=C(O)CCCn1cc(NC(=O)c2cc(F)c(F)cc2Cl)cn1	–	inactive: 19.7%
O=c1c2ccccc2nc(SCc2nc3ccccc3s2)n1CCCO	inconclusive: 1.84 µM [activator, partial curve, poor fit]	–
Cc1c(C(=O)OC/C(O)=C(\C#N)c2nc3ccccc3[nH]2)oc2ccccc12	–	inactive: 12.8%
Cc1ccc(C2CC(=O)Nc3cc4c(cc32)OCCO4)s1 (centres undefined)	inconclusive: 32.6 µM [inhibitor, partial curve, poor fit]	–
CN(C(=O)CSc1ncnc2sccc12)C1CCS(=O)(=O)C1 (centres undefined)	–	inactive: 21.2%
CN(C)c1ccc(/C=C2/NC(=O)NC2=O)cc1	inconclusive: 18.4 µM [activator, partial curve]	–
CCOc1ccc(S(=O)(=O)N2CCCCC2)cc1NC(=O)CSCc1c(C)noc1C	–	inactive: -22.3%
Cc1ccc(Oc2ncccc2COC(=O)Nc2ccccc2C)cc1	inconclusive: 29.1 µM [inhibitor, single point]	–
COc1ccc(CCNC(=O)C23CN(Cc4ccccc4)CC2C(c2cccc([N+](=O)[O-])c2)=NO3)cc1 (centres undefined)	inconclusive: 29.1 µM [inhibitor, single point]	–
CCOC(=O)c1nn(-c2ccc(C)cc2)c2nc(Nc3ccccc3)cc(=O)n12	inconclusive: 11.6 µM [inhibitor, partial curve, poor fit]	–
CN(Cc1nc(-c2ccc(Cl)cc2)no1)C(=O)c1ccc2c(c1)OCO2	–	inactive: -12%
CCOc1cc(-c2cc(-c3ccc(NC(C)=O)cc3)nc(N)c2C#N)ccc1O	inconclusive: 7.3 µM [inhibitor, partial curve]	–
COc1ccc(S(=O)(=O)NC(CC(=O)O)c2ccco2)cc1 (centres undefined)	–	inactive: -3.29%
CN(C)c1nc(OCCNC(=O)COc2ccc(Cl)cc2Cl)nc(N(C)C)n1	active: 20.6 µM	–
Cc1ccc(C(=O)Nc2ccc3c(c2)OCCO3)o1	inconclusive: 4.61 µM [activator, partial curve]	–
CCCCNC(=NCc1cccc(C(F)(F)F)c1)Nc1ccccc1	–	inactive: -6.42%
Clc1ccc(NNc2ccnc3cc(Cl)ccc23)cc1	–	inactive: 2.91%
O=C(CSc1nc(-c2ccccc2)c(-c2ccccc2)o1)N1CCOCC1	inconclusive: 32.6 µM [inhibitor, partial curve, poor fit]	–
C=CCCC(=O)N1CCC(n2nccc2NC(=O)CCCc2ccccc2)CC1	inconclusive: 5.8 µM [activator, partial curve, poor fit]	–

3 structures from above, ordered by length of the SMILES, ascending.
SMILES	Potency	activity change, negative = inhibition
Cc1ccc(C(=O)Nc2ccc3c(c2)OCCO3)o1	inconclusive: 4.61 µM [activator, partial curve]	–
Cc1ccc(NC(=O)COC(=O)c2nn(C)cc2Cl)cc1	–	inactive: 1.8%
O=c1c2ccccc2nc(SCc2nc3ccccc3s2)n1CCCO	inconclusive: 1.84 µM [activator, partial curve, poor fit]	–

Going on with the list.

SMILES	Potency	activity change, negative = inhibition
O=C(Oc1cccc(NC(=O)c2ccccc2Cl)c1)c1ccc([N+](=O)[O-])cc1	inconclusive: 16.4 µM [activator, partial curve]	–
COc1cccc(C(=O)Nc2nc3c(c(=O)[nH]2)CCCC3)c1	inconclusive: 18.4 µM [activator, partial curve]	–
Cc1ccc(Oc2nc(-c3ccccn3)nc3ccccc23)cc1	active: 18.3 µM	–
CCCn1c(=O)[nH]c(=O)c2c1nc(-c1cc([N+](=O)[O-])ccc1Cl)n2CCOC	–	inactive: -8.71%
OC(CSc1c(Cl)cccc1Cl)CN1CCN(c2ccccc2F)CC1 (centres undefined)	inconclusive: 29.1 µM [inhibitor, single point]	–
O=C(COCc1cc(-c2ccc3c(c2)OCO3)on1)Nc1cccnc1Cl	–	inactive: 4.97%
O=C(CCS(=O)(=O)c1ccccc1)Nc1ccc(Cl)cn1	inconclusive: 16.4 µM [activator, partial curve]	–
CC(=O)Nc1ccc(C=NNc2ccc([N+](=O)[O-])cc2S(=O)(=O)Nc2ccccc2C(=O)O)cc1	inconclusive: 11.6 µM [activator, partial curve, poor fit]	–
O=C(CSc1nc2ccccc2c(=O)n1-c1ccccc1F)NC1CC1	inconclusive: 18.3 µM [activator, single point]	–
CC(=O)c1cc(C#N)c(SCc2ccncc2)nc1C	inconclusive: 20.6 µM [inhibitor, partial curve, poor fit]	–
COc1ccc(-c2n[nH]c(=S)n2/N=C/C=C\c2ccccc2OC)cc1	inconclusive: 25.9 µM [inhibitor, partial curve, poor fit]	–
COc1cccc2cc(C(=O)N3CCc4ccccc43)c(=O)oc12	inconclusive: 18.4 µM [activator, single point]	–
CCC(C)(C)C1CCc2[nH]nc(C(=O)NC3CCCCC3)c2C1 (centres undefined)	inconclusive: 15.8 µM [activator, partial curve]	–
Cc1cccc(C)c1OCCCN1CCCC1	–	inactive: 2.35%
CCOc1ccc2nc(NCCNC(=O)c3cc(OC)c(OC)c(OC)c3)c(C#N)cc2c1	active: 13 µM	–
COc1cccc(/C=N/NC(=O)c2[nH]nc3c2CCc2ccccc2-3)c1	inconclusive: 16.4 µM [inhibitor, partial curve]	–
C/C(=N\NC(=O)COc1ccc(C)cc1C(C)C)c1ccc(-n2ccnc2)cc1	–	inactive: -15.6%
Cc1ccc(Cn2nnc3c(=O)[nH]c(C(=O)NCc4ccco4)nc32)cc1	inconclusive: 35.5 µM [activator, partial curve, poor fit]	–
N/C(=N\OC(=O)c1ccc(Br)cc1)c1ccccc1	inconclusive: 16.4 µM [activator, partial curve]	–
CCN1CCN(C(=O)c2ccc(-c3nc4ccccc4s3)s2)CC1	inconclusive: 4.61 µM [activator, full curve]	–
CC(Sc1ccccc1)C(=O)NN=C1CCN(C)CC1 (centres undefined)	inconclusive: 14.6 µM [activator, partial curve, poor fit]	–
Cc1nnc(SCC(=O)NCCOc2ccc(Cl)cc2)n1-c1ccccc1	inconclusive: 25.9 µM [inhibitor, partial curve, poor fit]	–
